Experiment [1] has as its target BRG1 (BRM/SWI2-related gene 1), endogenous in 501mel cells (human (endogenous in 501mel)) (UniProt P51532). Briefly: co-IP.
The target of experiment [2] is FLAG-BAHCC1^BAH (UniProt Q9P281). Briefly: co-IP.

Chains of the proteins cited; added tags and fusions are not shown. Lines headed by an entry give the natural chain unless they say otherwise; changes in a name come on top.
UniProt P51532: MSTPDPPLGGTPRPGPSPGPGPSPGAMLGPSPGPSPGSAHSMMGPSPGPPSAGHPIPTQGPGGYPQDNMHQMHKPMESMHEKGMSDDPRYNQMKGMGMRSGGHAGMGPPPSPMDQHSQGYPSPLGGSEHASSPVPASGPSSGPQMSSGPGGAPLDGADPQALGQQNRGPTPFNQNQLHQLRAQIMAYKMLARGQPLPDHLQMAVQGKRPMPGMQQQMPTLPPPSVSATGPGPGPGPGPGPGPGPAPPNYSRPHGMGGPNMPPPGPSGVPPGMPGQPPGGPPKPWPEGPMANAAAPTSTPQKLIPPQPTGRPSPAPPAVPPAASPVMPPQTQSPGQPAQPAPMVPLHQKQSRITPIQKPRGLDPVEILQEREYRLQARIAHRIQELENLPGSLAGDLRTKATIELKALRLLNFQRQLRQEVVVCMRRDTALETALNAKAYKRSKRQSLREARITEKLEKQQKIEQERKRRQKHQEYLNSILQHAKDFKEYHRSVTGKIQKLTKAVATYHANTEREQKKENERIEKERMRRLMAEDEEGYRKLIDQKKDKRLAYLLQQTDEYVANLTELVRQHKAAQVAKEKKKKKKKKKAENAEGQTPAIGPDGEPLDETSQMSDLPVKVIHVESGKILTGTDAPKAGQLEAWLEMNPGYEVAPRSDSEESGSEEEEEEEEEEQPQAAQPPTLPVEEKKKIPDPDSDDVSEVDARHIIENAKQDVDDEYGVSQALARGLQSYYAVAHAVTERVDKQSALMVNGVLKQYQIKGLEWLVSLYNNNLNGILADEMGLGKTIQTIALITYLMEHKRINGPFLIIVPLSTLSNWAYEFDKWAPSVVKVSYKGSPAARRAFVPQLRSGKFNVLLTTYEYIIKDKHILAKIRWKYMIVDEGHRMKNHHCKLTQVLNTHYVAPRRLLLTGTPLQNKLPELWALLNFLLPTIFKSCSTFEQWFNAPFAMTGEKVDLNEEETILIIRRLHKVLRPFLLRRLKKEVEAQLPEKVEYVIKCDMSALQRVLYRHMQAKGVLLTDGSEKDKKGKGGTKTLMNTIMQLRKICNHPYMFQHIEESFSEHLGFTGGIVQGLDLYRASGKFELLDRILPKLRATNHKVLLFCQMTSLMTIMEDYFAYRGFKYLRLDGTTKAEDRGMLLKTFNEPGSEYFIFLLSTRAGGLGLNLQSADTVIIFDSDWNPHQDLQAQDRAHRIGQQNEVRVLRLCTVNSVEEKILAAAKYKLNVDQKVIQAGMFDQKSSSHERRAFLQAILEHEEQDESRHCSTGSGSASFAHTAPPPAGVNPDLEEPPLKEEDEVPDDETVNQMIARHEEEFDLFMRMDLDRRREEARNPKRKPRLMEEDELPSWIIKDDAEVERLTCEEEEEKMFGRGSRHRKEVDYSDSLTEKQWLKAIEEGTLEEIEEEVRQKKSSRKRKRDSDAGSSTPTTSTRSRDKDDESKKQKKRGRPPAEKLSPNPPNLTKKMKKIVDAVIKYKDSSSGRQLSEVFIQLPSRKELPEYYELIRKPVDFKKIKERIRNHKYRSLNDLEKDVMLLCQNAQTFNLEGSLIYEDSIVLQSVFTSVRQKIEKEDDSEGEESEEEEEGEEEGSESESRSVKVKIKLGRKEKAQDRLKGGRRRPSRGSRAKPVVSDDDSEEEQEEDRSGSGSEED
UniProt Q9P281: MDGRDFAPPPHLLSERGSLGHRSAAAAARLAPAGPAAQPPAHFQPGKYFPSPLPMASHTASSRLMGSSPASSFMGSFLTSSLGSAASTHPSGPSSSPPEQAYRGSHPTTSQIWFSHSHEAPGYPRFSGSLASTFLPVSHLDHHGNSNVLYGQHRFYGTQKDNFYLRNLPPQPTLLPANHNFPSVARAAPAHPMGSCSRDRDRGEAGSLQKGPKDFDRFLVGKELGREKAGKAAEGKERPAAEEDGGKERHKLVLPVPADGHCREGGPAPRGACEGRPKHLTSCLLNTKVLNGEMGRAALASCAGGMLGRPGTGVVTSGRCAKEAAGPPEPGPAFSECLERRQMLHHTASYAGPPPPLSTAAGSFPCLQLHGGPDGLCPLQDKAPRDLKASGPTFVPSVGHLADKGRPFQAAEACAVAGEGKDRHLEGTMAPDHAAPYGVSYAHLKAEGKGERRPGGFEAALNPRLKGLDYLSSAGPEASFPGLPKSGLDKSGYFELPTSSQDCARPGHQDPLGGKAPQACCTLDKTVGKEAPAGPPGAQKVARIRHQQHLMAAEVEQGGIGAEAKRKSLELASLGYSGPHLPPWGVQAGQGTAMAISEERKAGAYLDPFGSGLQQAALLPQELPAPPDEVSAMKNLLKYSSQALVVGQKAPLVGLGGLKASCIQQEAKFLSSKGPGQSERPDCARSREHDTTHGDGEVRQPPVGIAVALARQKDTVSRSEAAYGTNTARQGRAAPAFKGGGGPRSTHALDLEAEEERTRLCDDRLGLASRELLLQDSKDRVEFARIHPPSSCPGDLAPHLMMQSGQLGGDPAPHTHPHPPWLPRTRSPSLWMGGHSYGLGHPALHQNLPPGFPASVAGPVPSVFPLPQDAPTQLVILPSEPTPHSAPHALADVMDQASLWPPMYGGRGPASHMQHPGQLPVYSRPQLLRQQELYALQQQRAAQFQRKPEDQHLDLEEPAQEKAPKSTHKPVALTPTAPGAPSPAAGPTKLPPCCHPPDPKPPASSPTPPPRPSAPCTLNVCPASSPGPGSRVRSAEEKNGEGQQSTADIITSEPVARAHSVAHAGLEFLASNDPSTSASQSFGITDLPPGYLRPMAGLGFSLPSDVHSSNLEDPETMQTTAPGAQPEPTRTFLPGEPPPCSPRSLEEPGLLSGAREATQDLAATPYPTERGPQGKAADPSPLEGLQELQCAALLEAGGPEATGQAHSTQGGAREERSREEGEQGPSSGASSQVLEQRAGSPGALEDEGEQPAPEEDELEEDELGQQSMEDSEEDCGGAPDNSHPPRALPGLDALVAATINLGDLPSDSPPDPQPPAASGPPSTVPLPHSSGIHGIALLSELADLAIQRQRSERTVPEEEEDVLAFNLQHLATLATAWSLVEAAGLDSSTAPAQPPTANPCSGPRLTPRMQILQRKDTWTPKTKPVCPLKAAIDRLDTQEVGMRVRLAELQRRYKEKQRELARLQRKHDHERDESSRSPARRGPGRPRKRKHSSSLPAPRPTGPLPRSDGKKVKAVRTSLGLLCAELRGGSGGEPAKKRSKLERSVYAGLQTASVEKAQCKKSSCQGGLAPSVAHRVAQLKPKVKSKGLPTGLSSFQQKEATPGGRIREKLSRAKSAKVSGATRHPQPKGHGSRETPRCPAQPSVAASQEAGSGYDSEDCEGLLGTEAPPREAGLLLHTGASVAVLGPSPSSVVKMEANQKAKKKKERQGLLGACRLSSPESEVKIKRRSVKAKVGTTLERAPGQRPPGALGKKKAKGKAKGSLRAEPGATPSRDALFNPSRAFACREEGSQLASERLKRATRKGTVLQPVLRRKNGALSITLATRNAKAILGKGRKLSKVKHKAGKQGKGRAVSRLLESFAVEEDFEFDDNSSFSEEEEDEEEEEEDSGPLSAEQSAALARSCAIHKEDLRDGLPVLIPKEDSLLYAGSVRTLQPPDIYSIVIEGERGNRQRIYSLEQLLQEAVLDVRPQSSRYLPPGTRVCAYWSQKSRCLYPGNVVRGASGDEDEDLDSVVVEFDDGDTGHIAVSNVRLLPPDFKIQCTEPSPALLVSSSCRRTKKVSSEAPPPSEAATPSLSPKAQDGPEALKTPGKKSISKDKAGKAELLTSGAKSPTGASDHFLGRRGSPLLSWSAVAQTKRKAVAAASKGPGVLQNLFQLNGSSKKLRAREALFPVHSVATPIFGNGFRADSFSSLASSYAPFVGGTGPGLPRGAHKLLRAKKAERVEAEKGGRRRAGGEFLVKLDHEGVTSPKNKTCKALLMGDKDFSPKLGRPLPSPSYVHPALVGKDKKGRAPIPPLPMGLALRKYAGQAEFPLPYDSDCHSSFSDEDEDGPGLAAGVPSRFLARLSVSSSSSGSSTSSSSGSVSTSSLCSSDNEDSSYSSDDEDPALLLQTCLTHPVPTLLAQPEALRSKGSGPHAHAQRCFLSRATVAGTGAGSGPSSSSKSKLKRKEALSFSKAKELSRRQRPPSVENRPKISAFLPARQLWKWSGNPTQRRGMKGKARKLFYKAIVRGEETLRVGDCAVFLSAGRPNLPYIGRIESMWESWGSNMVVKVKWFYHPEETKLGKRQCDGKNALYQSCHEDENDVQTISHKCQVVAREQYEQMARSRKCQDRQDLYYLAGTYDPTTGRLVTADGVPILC
UniProt Q8TAQ2: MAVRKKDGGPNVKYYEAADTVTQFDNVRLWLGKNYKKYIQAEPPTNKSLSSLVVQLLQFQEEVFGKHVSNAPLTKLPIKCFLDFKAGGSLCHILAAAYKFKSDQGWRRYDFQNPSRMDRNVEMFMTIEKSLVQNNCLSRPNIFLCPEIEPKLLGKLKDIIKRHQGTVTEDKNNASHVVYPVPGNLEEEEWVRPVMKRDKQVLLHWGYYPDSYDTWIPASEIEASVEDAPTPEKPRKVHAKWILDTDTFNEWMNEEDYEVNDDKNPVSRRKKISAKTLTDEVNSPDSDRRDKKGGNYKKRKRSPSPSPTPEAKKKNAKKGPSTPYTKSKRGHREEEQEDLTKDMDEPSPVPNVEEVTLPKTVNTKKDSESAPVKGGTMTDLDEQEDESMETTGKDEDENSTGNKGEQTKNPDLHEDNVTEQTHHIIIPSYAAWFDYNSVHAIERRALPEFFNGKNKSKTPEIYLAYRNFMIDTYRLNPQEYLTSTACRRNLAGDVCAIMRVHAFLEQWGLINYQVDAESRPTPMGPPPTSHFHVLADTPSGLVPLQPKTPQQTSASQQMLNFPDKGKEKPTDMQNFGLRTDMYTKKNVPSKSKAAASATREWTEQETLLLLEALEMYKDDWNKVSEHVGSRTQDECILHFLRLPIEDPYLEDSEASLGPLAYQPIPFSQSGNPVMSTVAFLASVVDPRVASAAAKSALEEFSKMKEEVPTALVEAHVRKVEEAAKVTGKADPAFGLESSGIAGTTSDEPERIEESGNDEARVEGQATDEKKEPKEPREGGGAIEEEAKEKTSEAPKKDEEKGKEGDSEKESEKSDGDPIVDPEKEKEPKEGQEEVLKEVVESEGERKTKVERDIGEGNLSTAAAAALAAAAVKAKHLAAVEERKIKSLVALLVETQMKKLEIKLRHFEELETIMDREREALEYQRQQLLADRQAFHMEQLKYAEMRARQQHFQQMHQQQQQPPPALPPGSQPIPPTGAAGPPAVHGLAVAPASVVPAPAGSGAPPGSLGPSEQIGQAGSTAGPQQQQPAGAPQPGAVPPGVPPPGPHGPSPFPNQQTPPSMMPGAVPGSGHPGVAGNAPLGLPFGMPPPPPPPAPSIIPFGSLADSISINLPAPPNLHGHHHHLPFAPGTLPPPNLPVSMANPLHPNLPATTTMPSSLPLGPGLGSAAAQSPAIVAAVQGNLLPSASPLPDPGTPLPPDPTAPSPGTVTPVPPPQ

No constants are given. Whether binding was seen depends on the method and setting. In cells and extracts the contact can be indirect. Some binding calls cover weakened binding; strength is not graded here.

Regarding “Bromo Adjacent Homology and Coiled Coil Domain-Containing 1 (BAHCC1), endogenous (from UniProt Q9P281 1-2639)”, the binding result in experiment [1] was “binds”.
With “BRG1 (BRM/SWI2-related gene 1), endogenous in HEK293T cells (from UniProt P51532 1-1647)”, the binding result in experiment [2] was “binds”.
Regarding “HA-BAHCC1^BAH (stably expressed in 501mel) (from UniProt Q9P281 2513-2633) (domain or fragment)”, in experiment [1], the binding result was “binds”.
Turning to SMARCC2 (from UniProt Q8TAQ2 1-1214), in experiment [1], the binding entry is on record as “binds”.

The values above are taken from paper doi:10.1101/2023.01.18.524519.
